PubChem BioAssay AID1224830 | NIAID, 2016
Test: 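Regulators of TLR4 signalling towards TNF-alpha in macrophage-like cells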 (primary screen). System: human THP-1 monocytic leukaemia cells, TNF dual-luciferase reporter clone, PMA-differentiated to macrophage-like cells. Knock-down reagent: siRNA pool against human genes, 50 nM. Duration: LPS for 4 h, given about 3 days after siRNA transfection. Conditions: bacterial LPS (TLR4 ligand), 10 ng/ml. Measurement: 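Ratio of firefly to renilla light, scaled to the plate median and expressed as a robust z-score per replicate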. Direction: TNF reporter robust z-score: higher = stronger TNF reporter response to LPS. Rule for the call: 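a well is active when its z-score exceeds 2.8 or falls below -1.5; control wells carry no call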.
The deposit covers about 18,000 reagents; this is a random part of them. In the full data, about 2,900 (16%) got an active call. 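Calls are made per well; low scores hint the gene aids the LPS response, high scores that it dampens it.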 Repeated entries: four replicate wells of each siRNA pool.

target | TNF reporter robust z-score | outcome
VDAC1 | -0.15 | inactive
VDAC1 | 1.96 | inactive
VDAC1 | 1.09 | inactive
VDAC1 | 1.27 | inactive
TRPM8 | -1.47 | inactive
TRPM8 | -0.69 | inactive
TRPM8 | -0.98 | inactive
TRPM8 | -0.03 | inactive
CHURC1 | 0.16 | inactive
CHURC1 | 0.41 | inactive
CHURC1 | 0.03 | inactive
CHURC1 | 1.01 | inactive
H3-5 | -0.47 | inactive
H3-5 | -1.04 | inactive
H3-5 | -0.95 | inactive
H3-5 | -0.74 | inactive
TPRA1 | 0.73 | inactive
TPRA1 | 1.16 | inactive
TPRA1 | 0.74 | inactive
TPRA1 | 2.28 | inactive
EPN3 | 1.66 | inactive
EPN3 | 1.27 | inactive
EPN3 | 1.61 | inactive
EPN3 | 2.77 | inactive
CHST11 | 0.96 | inactive
CHST11 | 1.91 | inactive
CHST11 | 0.89 | inactive
CHST11 | 1.6 | inactive
OAT | -1.2 | inactive
OAT | -0.11 | inactive
OAT | -0.49 | inactive
OAT | -0.63 | inactive
FASTKD1 | 1.52 | inactive
FASTKD1 | 1.39 | inactive
FASTKD1 | 1.82 | inactive
FASTKD1 | 0.23 | inactive
DNASE1L1 | 2.41 | inactive
DNASE1L1 | 0.61 | inactive
DNASE1L1 | 2.36 | inactive
DNASE1L1 | 2.23 | inactive
APBB3 | -1.08 | inactive
APBB3 | -0.7 | inactive
APBB3 | -1.02 | inactive
APBB3 | -0.61 | inactive
ACP3 | -0.02 | inactive
ACP3 | 0.75 | inactive
ACP3 | -1.46 | inactive
ACP3 | -1.02 | inactive
NAIP | -0.26 | inactive
NAIP | 1.67 | inactive
NAIP | -0.38 | inactive
NAIP | 0.87 | inactive

9 consecutive records from above, quoted:
target | TNF reporter robust z-score | outcome
DNASE1L1 | 2.41 | inactive
DNASE1L1 | 0.61 | inactive
DNASE1L1 | 2.36 | inactive
DNASE1L1 | 2.23 | inactive
APBB3 | -1.08 | inactive
APBB3 | -0.7 | inactive
APBB3 | -1.02 | inactive
APBB3 | -0.61 | inactive
ACP3 | -0.02 | inactive

The results go on:
target | TNF reporter robust z-score | outcome
OSBPL9 | -0.25 | inactive
OSBPL9 | 0.03 | inactive
OSBPL9 | 0.68 | inactive
OSBPL9 | 0.64 | inactive
APOH | 0.81 | inactive
APOH | 0.64 | inactive
APOH | 0.59 | inactive
APOH | 1.15 | inactive
ADIPOR1 | 0.33 | inactive
ADIPOR1 | 1.43 | inactive
ADIPOR1 | -0.89 | inactive
ADIPOR1 | 3.5 | active
BMI1 | -1.18 | inactive
BMI1 | 0.2 | inactive
BMI1 | -0.53 | inactive
BMI1 | 0.34 | inactive
ZFYVE9 | 0.98 | inactive
ZFYVE9 | -0.7 | inactive
ZFYVE9 | 0.23 | inactive
ZFYVE9 | 2.74 | inactive
ZNF623 | 0.47 | inactive
ZNF623 | -0.22 | inactive
ZNF623 | -0.26 | inactive
ZNF623 | 0.34 | inactive
MSTO1 | 0.1 | inactive
MSTO1 | -0.18 | inactive
MSTO1 | -0.14 | inactive
MSTO1 | 0.98 | inactive
SYBU | 0.85 | inactive
SYBU | 0.75 | inactive
SYBU | 1.15 | inactive
SYBU | -1.13 | inactive
SEPTIN11 | -1.48 | inactive
SEPTIN11 | -1.66 | active
SEPTIN11 | -1.45 | inactive
SEPTIN11 | -1.83 | active
CALCOCO2 | 0.02 | inactive
CALCOCO2 | 0.34 | inactive
CALCOCO2 | -0.57 | inactive
CALCOCO2 | -0.24 | inactive
PYGL | 0.56 | inactive
PYGL | 1.02 | inactive
PYGL | 1.25 | inactive
PYGL | 1.76 | inactive
AP3S2 | 0.25 | inactive
AP3S2 | 0.81 | inactive
AP3S2 | 0.07 | inactive
AP3S2 | 0.21 | inactive
PGS1 | 1.12 | inactive
PGS1 | 1.67 | inactive
PGS1 | 1.13 | inactive
PGS1 | 2.05 | inactive
TFE3 | -0.68 | inactive
TFE3 | -0.12 | inactive
TFE3 | -0.25 | inactive
TFE3 | 0.2 | inactive
MYL3 | -0.82 | inactive
MYL3 | -1.02 | inactive
MYL3 | 0.04 | inactive
MYL3 | 1.93 | inactive
